These are yes or no findings as the source states them, for the method shown. In cells and extracts the contact can be indirect. Here binding means that the protein was enriched with, or labelled near, the bait; the list need not be complete.
Molecular target: Pde6δ-Strep-HA (retinal rod rhodopsin-sensitive cGMP 3',5'-cyclic phosphodiesterase subunit delta) (human) (UniProt O43924)
Assay: affinity purification with mass spectrometry; Pde6δ-Strep-HA stably expressed in HEK293 pulled down from protein extracts on Strep-Tactin Sepharose beads; label-free quantitative MS (LTQ Orbitrap XL); control HEK293 cells without bait; vehicle (DMSO) treated cells, also REM treated cells; co-precipitation threshold of 2 (Pde6δ vehicle/control); three biological replicates

The chains behind the UniProt entries cited, without tags or fusion partners.
UniProt P36405: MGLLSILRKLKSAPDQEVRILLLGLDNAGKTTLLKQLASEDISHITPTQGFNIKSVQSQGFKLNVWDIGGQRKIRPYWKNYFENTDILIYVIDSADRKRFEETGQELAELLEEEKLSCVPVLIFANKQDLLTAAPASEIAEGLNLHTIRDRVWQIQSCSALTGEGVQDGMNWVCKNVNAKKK

binding: binds
Substance: Arl3 (from UniProt P36405 1-182)
